# Data source: PubChem BioAssay AID686938 (Drosophila RNAi Screening Center, 2013)
# Screen: 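Fly genes required for calcium entry once internal stores are emptied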 (primary screen)
# Cells: Drosophila S2R+ cells
# Reagent: long dsRNA against Drosophila genes, about 0.25 µg dsRNA per well, roughly 10,000 cells
# Duration: 5 days of knock-down before the calcium assay
# Challenge: thapsigargin (SERCA pump blocker) to empty calcium stores; entry signal taken 4 min after adding it
# Measured: 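Duplicate raw fluo-4 intensities per well from a plate reader, at rest and four minutes after thapsigargin emptied calcium stores; entry-to-rest ratio filled for only some wells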
# Reading the numbers: calcium entry signal: higher = stronger calcium signal after store depletion; entry to resting ratio: higher = more calcium entry relative to resting level; resting calcium signal: higher = higher resting calcium signal
# Active means: 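Hit if the duplicate-averaged plate z-score for entry over resting signal is under −3; wells with weak total dye signal (Fmax z < −2) or more than 5 off-targets removed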
# Meaning of the calls: active = strongly reduced calcium entry; inactive = no strong reduction
# The screen tested about 23,000 reagents; shown is an unselected part of those with a known target gene and a result. Over the whole deposit, 75 (0.33%) are marked active. 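Raw plate signals without normalisation; calls rest on plate z-scores that were not deposited; ratio present for only 364 wells.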 Names joined by + are all predicted targets of the reagent. Not stated in the record: the dose of the treatment.
gene knocked down,dsRNA,"calcium entry signal, replicate 1 (fluorescence units)","calcium entry signal, replicate 2 (fluorescence units)",entry to resting ratio,"resting calcium signal, replicate 1 (fluorescence units)","resting calcium signal, replicate 2 (fluorescence units)",activity call
Evi5,DRSC19421,2.43e7,3.30e7,,1.12e7,1.57e7,inactive
COX7C,DRSC06831,4.71e7,3.67e7,,2.08e7,1.76e7,inactive
CG17746,DRSC08521,3.31e7,2.67e7,,2.25e7,1.27e7,inactive
CG17746,DRSC23333,3.90e7,3.14e7,,1.93e7,1.46e7,inactive
CG17803,DRSC15275,3.37e7,4.98e7,,4.03e7,2.52e7,inactive
CG17803,DRSC22811,2.47e7,4.49e7,,1.36e7,1.92e7,inactive
CG8230,DRSC05931,3.10e7,3.86e7,,1.49e7,1.83e7,inactive
mRpL30,DRSC18416,4.72e7,5.42e7,,2.17e7,2.18e7,inactive
PGRP-SC2,DRSC06481,3.98e7,4.99e7,,1.85e7,1.89e7,inactive
Cyp6a18,DRSC16632,4.00e7,5.27e7,,1.98e7,2.04e7,inactive
CG6071,DRSC10579,2.17e7,2.58e7,,1.12e7,1.25e7,inactive
CG33922,DRSC00050,2.80e7,4.24e7,,1.45e7,2.06e7,inactive
Hydr1,DRSC07063,4.40e7,2.28e7,,1.96e7,1.28e7,inactive
Arpc1,DRSC03438,5.03e7,,,2.32e7,,inactive
Gr64d + Gr64e,DRSC08446,4.07e7,1.64e7,,2.12e7,8.99e6,inactive
CG40191,DRSC21041,6.40e7,3.47e7,,3.02e7,1.35e7,inactive
Obp19a,DRSC20487,5.04e7,4.91e7,,2.30e7,1.90e7,inactive
Dic1,DRSC14125,3.84e7,4.52e7,,1.48e7,2.11e7,inactive
CG13053,DRSC09934,2.99e7,5.22e7,,1.61e7,2.26e7,inactive
gammaSnap1,DRSC04686,3.51e7,,,1.81e7,,inactive
CG14855,DRSC14979,3.18e7,5.51e7,,1.58e7,6.68e7,inactive
CG4972,DRSC02798,2.98e7,4.04e7,,1.44e7,1.74e7,inactive
Tim8,DRSC20291,2.94e7,4.63e7,,1.49e7,2.13e7,inactive
CG31294,DRSC22217,4.73e7,3.45e7,,2.83e7,1.82e7,inactive
bumpel,DRSC16100,3.21e7,3.40e7,,1.58e7,1.73e7,inactive
Tsen54,DRSC10527,2.88e7,3.43e7,,1.54e7,1.65e7,inactive
CG13872,DRSC06431,5.89e7,5.87e7,,2.60e7,2.72e7,inactive
RpS14b,DRSC18711,7.88e6,5.80e6,,6.19e6,5.19e6,inactive
CG14177 (retired record),DRSC10176,3.08e7,2.74e7,,1.54e7,1.44e7,inactive
otp,DRSC04050,4.46e7,4.05e7,,2.08e7,1.89e7,inactive
otp,DRSC04707,4.44e7,4.46e7,,2.09e7,1.83e7,inactive
Tango6,DRSC02671,3.15e7,,,1.59e7,,inactive
ppk29,DRSC04205,2.77e7,3.23e7,,1.57e7,1.51e7,inactive
Dpck,DRSC12575,4.43e7,3.53e7,,2.20e7,1.73e7,inactive
Bulli,DRSC10974,3.27e7,5.66e7,,1.59e7,2.45e7,inactive
Pfdn4,DRSC09761,2.96e7,4.17e7,,1.47e7,1.92e7,inactive
CG43100 (retired record),DRSC01001,3.44e7,3.87e7,,1.62e7,1.71e7,inactive
Traf6,DRSC18725,3.18e7,4.16e7,,1.65e7,1.90e7,inactive
Pos,DRSC15415,3.30e7,4.68e7,2.1,1.56e7,1.87e7,inactive
tsh,DRSC03740,3.57e7,4.75e7,,1.92e7,1.92e7,inactive
CG32110,DRSC09220,3.72e7,4.42e7,,1.74e7,2.01e7,inactive
7B2,DRSC11991,3.28e7,2.47e7,,1.73e7,1.34e7,inactive
CG15449,DRSC20521,4.06e7,4.24e7,,2.04e7,1.89e7,inactive
Gcn2,DRSC16678,1.82e7,2.45e7,,9.67e6,1.39e7,inactive
Torsin,DRSC18570,2.99e7,4.53e7,,1.83e7,2.46e7,inactive
DIP-epsilon,DRSC00932,4.27e7,2.97e7,,2.03e7,1.38e7,inactive
DIP-epsilon,DRSC02313,2.73e7,3.45e7,,1.46e7,1.80e7,inactive
CG7509,DRSC08596,4.95e7,3.64e7,,3.25e7,1.57e7,inactive
CG8641,DRSC11028,3.66e7,3.94e7,,1.67e7,1.80e7,inactive
Bmcp,DRSC10808,3.97e7,3.18e7,,2.93e7,1.37e7,inactive
CG9702,DRSC16540,4.21e7,4.95e7,,2.17e7,2.00e7,inactive
CG12177,DRSC19437,3.21e7,3.80e7,,1.65e7,1.80e7,inactive
CG12177,DRSC21524,3.29e7,3.22e7,,1.84e7,1.55e7,inactive
CG6428,DRSC18402,2.37e7,4.41e7,,1.27e7,2.03e7,inactive
CG32137,DRSC10271,2.44e7,3.29e7,,1.39e7,1.54e7,inactive
CG32137,DRSC10272,2.95e7,4.15e7,,1.73e7,1.87e7,inactive
Tbcc,DRSC00223,2.72e7,3.79e7,,1.51e7,1.71e7,inactive
CG14692,DRSC14915,3.01e7,3.11e7,,1.46e7,1.70e7,inactive

Reformatted: 7 of the entries above.
gene knocked down | dsRNA | calcium entry signal, replicate 1 (fluorescence units) | calcium entry signal, replicate 2 (fluorescence units) | entry to resting ratio | resting calcium signal, replicate 1 (fluorescence units) | resting calcium signal, replicate 2 (fluorescence units) | activity call
7B2 | DRSC11991 | 3.28e7 | 2.47e7 | – | 1.73e7 | 1.34e7 | inactive
CG15449 | DRSC20521 | 4.06e7 | 4.24e7 | – | 2.04e7 | 1.89e7 | inactive
Gcn2 | DRSC16678 | 1.82e7 | 2.45e7 | – | 9.67e6 | 1.39e7 | inactive
Torsin | DRSC18570 | 2.99e7 | 4.53e7 | – | 1.83e7 | 2.46e7 | inactive
DIP-epsilon | DRSC00932 | 4.27e7 | 2.97e7 | – | 2.03e7 | 1.38e7 | inactive
DIP-epsilon | DRSC02313 | 2.73e7 | 3.45e7 | – | 1.46e7 | 1.80e7 | inactive
CG7509 | DRSC08596 | 4.95e7 | 3.64e7 | – | 3.25e7 | 1.57e7 | inactive
